Laboratory results reported in article PMC7236181.
Results are given in words; binding and its absence hold for the method and conditions named. In cells and extracts the contact can be indirect. Some entries that bind do so weakly or less than the wild type.

Amino acid sequences for entries named in this document (tags omitted).
UniProt Q13315: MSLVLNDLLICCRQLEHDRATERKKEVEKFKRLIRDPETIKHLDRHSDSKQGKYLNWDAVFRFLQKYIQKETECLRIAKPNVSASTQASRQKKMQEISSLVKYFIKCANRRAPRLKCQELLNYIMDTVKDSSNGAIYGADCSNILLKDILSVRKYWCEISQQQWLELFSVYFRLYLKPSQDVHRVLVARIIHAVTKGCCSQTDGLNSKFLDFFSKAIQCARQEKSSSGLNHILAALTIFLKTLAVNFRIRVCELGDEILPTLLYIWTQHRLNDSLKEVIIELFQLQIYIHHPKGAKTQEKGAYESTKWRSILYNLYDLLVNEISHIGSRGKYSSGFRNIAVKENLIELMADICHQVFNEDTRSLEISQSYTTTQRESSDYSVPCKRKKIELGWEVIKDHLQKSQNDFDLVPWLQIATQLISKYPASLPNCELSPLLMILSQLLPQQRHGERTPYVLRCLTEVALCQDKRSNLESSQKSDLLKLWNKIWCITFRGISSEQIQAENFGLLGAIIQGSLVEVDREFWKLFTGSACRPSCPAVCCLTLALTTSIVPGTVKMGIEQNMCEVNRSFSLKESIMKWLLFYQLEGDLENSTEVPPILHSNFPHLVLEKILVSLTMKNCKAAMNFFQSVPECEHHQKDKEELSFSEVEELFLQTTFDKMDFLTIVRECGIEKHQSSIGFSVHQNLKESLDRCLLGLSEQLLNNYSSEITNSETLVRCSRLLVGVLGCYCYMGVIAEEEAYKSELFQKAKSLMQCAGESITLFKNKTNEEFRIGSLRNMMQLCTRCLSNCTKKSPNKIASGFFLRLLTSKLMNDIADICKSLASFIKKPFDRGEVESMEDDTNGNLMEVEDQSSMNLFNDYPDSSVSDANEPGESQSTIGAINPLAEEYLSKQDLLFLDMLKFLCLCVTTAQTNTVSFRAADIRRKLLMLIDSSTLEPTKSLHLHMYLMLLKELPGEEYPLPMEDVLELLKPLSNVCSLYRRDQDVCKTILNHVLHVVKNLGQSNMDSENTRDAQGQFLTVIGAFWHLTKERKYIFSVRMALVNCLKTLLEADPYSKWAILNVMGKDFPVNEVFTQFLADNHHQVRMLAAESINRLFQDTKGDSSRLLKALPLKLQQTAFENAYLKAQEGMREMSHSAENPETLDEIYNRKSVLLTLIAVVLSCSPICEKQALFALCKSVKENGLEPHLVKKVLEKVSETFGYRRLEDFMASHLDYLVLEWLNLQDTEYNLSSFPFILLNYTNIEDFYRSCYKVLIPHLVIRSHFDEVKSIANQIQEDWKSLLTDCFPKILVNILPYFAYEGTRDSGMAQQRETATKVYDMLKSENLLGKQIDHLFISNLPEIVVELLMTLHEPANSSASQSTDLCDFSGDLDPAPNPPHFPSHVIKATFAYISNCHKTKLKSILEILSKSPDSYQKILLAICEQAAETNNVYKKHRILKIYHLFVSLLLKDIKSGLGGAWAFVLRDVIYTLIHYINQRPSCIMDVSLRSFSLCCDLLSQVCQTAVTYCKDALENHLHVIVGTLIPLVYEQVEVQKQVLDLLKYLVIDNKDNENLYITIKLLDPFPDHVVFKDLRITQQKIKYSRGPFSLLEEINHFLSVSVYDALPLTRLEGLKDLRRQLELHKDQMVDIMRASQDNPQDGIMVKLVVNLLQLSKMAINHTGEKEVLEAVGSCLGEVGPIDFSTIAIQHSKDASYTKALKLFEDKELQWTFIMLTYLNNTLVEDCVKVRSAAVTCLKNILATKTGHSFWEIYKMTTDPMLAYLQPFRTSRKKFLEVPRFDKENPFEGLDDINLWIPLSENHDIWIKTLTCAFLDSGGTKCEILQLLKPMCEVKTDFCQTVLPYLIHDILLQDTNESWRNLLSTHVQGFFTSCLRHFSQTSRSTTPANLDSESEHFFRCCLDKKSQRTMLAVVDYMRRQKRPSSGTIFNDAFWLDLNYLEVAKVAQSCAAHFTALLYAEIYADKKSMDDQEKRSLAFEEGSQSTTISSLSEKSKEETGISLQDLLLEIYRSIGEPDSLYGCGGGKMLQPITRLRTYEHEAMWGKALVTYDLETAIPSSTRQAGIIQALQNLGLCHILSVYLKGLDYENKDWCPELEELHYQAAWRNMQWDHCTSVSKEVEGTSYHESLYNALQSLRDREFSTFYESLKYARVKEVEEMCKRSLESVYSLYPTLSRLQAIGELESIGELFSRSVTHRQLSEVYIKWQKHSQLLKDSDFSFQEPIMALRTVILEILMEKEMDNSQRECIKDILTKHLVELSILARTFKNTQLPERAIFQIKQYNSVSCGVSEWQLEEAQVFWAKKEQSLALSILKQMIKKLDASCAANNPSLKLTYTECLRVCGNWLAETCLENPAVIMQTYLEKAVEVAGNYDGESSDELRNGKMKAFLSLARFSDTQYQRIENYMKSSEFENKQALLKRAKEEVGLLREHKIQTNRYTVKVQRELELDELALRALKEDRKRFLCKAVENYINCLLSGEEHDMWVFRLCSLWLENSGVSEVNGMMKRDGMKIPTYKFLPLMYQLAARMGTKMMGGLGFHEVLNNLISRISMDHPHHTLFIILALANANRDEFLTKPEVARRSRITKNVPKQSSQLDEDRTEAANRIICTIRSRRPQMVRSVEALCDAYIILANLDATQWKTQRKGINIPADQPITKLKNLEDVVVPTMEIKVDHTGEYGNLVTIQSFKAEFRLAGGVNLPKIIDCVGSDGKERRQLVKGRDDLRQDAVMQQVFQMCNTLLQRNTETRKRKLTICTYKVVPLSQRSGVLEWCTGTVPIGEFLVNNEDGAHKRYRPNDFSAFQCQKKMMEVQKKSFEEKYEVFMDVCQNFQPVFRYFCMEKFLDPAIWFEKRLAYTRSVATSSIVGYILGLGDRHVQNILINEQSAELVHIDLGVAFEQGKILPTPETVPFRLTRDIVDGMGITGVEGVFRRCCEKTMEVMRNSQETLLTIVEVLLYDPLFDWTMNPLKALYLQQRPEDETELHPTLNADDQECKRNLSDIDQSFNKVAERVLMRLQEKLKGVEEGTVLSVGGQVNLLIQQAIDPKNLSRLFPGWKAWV
UniProt O15534: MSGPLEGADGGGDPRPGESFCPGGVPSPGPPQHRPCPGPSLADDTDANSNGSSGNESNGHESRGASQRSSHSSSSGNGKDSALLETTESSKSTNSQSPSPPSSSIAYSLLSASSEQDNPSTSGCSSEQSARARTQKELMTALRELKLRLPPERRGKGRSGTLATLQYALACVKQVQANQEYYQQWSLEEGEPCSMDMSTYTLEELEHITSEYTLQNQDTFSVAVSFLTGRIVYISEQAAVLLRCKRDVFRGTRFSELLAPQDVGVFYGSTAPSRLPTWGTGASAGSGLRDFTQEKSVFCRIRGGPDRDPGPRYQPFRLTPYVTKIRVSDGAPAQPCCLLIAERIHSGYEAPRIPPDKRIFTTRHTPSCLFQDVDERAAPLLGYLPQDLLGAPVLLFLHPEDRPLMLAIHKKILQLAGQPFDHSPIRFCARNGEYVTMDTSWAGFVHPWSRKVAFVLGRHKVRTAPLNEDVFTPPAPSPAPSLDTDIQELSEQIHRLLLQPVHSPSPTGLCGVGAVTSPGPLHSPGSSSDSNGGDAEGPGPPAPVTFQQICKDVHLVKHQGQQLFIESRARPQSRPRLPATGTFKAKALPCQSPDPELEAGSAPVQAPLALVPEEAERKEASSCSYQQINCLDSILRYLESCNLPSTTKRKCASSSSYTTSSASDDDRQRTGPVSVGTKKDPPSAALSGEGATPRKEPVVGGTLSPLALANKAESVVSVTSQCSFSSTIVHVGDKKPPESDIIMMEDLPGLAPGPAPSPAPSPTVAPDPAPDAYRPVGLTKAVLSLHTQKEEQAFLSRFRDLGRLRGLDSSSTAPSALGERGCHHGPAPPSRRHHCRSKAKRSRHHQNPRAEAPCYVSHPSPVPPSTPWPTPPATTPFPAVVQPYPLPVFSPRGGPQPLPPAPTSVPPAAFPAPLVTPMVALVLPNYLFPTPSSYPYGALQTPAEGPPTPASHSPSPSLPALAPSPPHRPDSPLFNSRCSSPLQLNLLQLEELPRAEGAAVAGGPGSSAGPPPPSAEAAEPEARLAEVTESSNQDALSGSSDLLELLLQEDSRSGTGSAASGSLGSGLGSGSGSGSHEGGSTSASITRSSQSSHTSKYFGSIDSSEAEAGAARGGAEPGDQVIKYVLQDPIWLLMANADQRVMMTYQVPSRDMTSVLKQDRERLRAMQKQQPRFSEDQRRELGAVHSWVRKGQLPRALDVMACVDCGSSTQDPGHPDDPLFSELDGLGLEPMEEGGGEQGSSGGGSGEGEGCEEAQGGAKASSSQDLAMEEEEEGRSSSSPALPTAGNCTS

Target: ATM (human (endogenous in 293 T)) (UniProt Q13315)
Assay: co-IP; lysate of 293 T cells transfected with PER1 or an empty vector; IP with an ATM antibody (sc-377,293) or control IgG and protein A-sepharose beads, overnight at 4 °C; western blotting

binding: binds
Substance: PER1 (from UniProt O15534 1-1290)
